This note sets out measurements from paper PMC4989169.

No constants are given. Whether binding was seen depends on the method and setting.

This assay addresses T1, active MASP-3cf (catalytic fragment of active MASP-3 containing the CCP1-CCP2-SP domains) (human) (UniProt P48740).
T1 sequence: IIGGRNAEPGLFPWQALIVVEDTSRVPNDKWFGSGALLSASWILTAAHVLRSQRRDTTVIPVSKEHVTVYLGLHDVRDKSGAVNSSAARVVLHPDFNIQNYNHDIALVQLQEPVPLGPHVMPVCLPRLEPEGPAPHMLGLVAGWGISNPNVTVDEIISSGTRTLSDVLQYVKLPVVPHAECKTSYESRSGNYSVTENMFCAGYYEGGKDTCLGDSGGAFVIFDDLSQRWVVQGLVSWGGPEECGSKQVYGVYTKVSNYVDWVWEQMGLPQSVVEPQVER
Description: enzyme inhibition assay (equilibrium KI from residual activity, photometric); enzymes co-incubated with serial dilutions of the inhibitors for 2 h at room temperature; 20 mM HEPES, 145 mM NaCl, 5 mM CaCl2, 0.05% Triton X-100, pH 7.5; Z-Lys-SBzl substrate, read at 410 nm; both purified.

For “wild-type TFPI-D2 (second domain of human Tissue Factor Pathway Inhibitor-1) (domain or fragment)”, the binding entry is “no binding”.
